Results reported in US9526766B2, “Potentiation of antibiotic treatment with a protein-lipid complex” (priority 2012, dated 2016).
Entries after “also recorded” stand apart in the source; their conditions may differ.

Tested on: Streptococcus pneumoniae
Assay: Short-time kill assay on planktonic cultures
Assay type: cell-based
Details: D39, 1 hour, staurosporine 20 μM
Experimental: Methodology: In late logarithmic growth phase, the bacteria were harvested by centrifugation at 12,000×g for 10 minutes and resuspended in phosphate-buffered saline (PBS; […], […], […], pH 7.4). Appropriate dilutions of the bacteria were suspended in PBS and treated with indicated concentrations of ALAFAC and/or antibiotics for various times. The effect on bacterial viability was assessed by plating serial dilutions of bacterial sample on tryptic soy agar plates containing 5% sheep blood (viable counts) and determining viable colony forming units after overnight growth at 37° C.
Short-time kill assays. In late logarithmic growth phase, the bacteria were harvested by centrifugation at 12,000×g for 10 minutes and resuspended in phosphate-buffered saline (PBS; 30 mM Na2HPO4, 10 mM KH2PO4, […], pH 7.4). Appropriate concentrations of the bacteria (around 10^8 colony forming units per ml) were suspended in PBS and treated with indicated concentrations of ALAFAC and/or antibiotics for various times. The effect on bacterial viability was assessed by plating serial dilutions of bacterial sample on tryptic soy agar plates containing 5% sheep blood (viable counts) and determining viable CFUs after overnight growth at 37° C.

Compound: CN[C@@H]1C[C@H]2O[C@@](C)([C@@H]1OC)n1c3ccccc3c3c4c(c5c6ccccc6n2c5c31)C(=O)NC4 [staurosporine]
- Effect of inhibitor on ALAFAC potentiation of gentamicin and penicillin G (Ruthenium Red 30 μM): completely abolished; also recorded: significantly blocked
- Effect of inhibitor on ALAFAC-induced death (lethal ALAFAC (12×MIC), ruthenium red 30 μM): significantly reduced
